Data set [1] relates to RBM7 (NEXT subunit) + SKIV2L2 (NEXT subunit) + ZCCHC8 (NEXT subunit). In words: pull-down, LC-MS/MS. The note with it: HEK293 extract; pull-down: HSB, 1 h at 30 C; protein in an extract; label: biotin, 5'.
The target in data set [2] is T1, ZC3H18 (Homo sapiens (HEK293)) (UniProt Q86VM9).
T1 sequence (looked up, limits assumed): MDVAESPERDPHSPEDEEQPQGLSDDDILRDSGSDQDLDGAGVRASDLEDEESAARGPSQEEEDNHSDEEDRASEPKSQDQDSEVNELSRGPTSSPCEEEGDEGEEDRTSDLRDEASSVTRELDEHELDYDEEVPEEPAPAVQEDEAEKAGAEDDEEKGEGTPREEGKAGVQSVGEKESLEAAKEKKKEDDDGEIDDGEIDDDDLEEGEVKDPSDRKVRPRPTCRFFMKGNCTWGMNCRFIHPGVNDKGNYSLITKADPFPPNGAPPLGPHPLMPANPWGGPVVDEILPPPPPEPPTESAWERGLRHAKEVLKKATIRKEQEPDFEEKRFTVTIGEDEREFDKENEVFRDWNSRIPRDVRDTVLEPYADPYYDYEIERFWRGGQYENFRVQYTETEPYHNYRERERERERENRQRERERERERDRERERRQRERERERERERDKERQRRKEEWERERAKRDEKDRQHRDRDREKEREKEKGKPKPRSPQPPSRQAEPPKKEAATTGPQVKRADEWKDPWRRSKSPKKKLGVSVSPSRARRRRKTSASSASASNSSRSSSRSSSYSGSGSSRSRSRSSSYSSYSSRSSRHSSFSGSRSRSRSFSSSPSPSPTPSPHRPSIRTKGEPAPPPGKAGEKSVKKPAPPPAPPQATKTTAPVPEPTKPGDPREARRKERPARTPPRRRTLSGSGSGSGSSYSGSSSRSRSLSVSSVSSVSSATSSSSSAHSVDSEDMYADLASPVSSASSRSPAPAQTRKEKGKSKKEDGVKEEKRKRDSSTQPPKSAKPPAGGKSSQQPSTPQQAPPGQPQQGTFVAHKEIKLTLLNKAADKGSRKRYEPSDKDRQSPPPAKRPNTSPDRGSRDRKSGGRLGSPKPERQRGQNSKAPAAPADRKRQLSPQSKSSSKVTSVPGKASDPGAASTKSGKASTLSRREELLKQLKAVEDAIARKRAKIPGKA
Nature of the data set: pull-down, LC-MS/MS. The note with it: HEK293 extract; pull-down: HSB, 1 h at 30 C; protein in an extract; label: biotin, 5'.

Amino acid sequences for entries named in this document (tags omitted). A change or cut given only in a name is not applied to a line headed by its entry.
UniProt Q9Y580: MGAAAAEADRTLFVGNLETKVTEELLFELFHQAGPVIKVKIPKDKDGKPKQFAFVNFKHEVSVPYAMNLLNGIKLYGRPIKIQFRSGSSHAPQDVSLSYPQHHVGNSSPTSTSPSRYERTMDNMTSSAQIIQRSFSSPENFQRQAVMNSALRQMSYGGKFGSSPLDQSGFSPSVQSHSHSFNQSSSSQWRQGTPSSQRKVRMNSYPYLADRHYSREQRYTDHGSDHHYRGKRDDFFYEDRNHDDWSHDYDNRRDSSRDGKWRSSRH

Data set [3] deals with RBM7 RRM F52A (Homo sapiens) (UniProt Q9Y580). Nature of the data set: fluorescence anisotropy. The note with it: printed as >>200; FA: 50 mM Tris pH 7.0 (also given as pH 8), 200 mM NaCl, 10 mM 2-mercaptoethanol, 20 C; recombinant protein; residues 6-94; protein details: 6xHis-Smt3 removed with Ulp1; label: 5' fluorescein. On the technique in general: Polarisation of emitted light reports the rotation of a fluorescent probe.

Data set [4] concerns the target T2, RBM7 RRM F13A (Homo sapiens) (UniProt Q9Y580).
T2 sequence (looked up): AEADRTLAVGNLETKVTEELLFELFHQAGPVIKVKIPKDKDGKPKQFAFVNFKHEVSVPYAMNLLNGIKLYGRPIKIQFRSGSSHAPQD
In words: fluorescence anisotropy. Particulars: printed as >>200; FA: 50 mM Tris pH 7.0 (also given as pH 8), 200 mM NaCl, 10 mM 2-mercaptoethanol, 20 C; recombinant protein; residues 6-94; protein details: 6xHis-Smt3 removed with Ulp1; label: 5' fluorescein.

The target of data set [5] is T3, RBM7 RRM (Homo sapiens (cDNA from HEK293T-Rex)) (UniProt Q9Y580).
T3 sequence (looked up): T2 sequence (looked up) with A8F
In words: fluorescence anisotropy. The note with it: printed as >>150; FA: 50 mM Tris pH 7.0 (also given as pH 8), 200 mM NaCl, 10 mM 2-mercaptoethanol, 20 C; recombinant protein; residues 6-94; protein details: 6xHis-Smt3 removed with Ulp1; label: 5' fluorescein.

Changes are numbered by the printed parent chain. pKd: −log10 of the molar value. For some of these results: Tags and fusion partners may be left off the protein sequences shown. For some of these results: Construct, isoform or probe ends are uncertain for at least one entry. For some of these results: Where cells or extracts were used, other partners may take part. For some of these results: No signal at the amounts used counts as a negative. For some of these results: At least one verdict was read from the data and is not stated in words by the source.

For the sequence “GAACAUAUUUCACCAACAUUAUACUGUGUC [Btn-Random RNA]”, the binding result in data set [1] and in data set [2] was “no binding” in each case.
CUCUCUC [Y7]: the negative-log Kd (pKd) in data set [3] and in data set [4] was under 3.70 in each case.
With CCCCCCC [C7], the pKd in data set [5] is under 3.82.
As for “UUUUUUUUUUUUUUUUUUUUUUUUUUUUUU [Btn-Oligo U30]”, the binding result in data set [1] and in data set [2] was “binds” throughout.

As usually defined, the pKd is the Kd on a negative log10 scale, so that one unit is a factor of ten.
